Measured values as given in paper PMC10681733.
No constants are given. Whether binding was seen depends on the method and setting. In cells and extracts the contact can be indirect. These calls come from enrichment with a bait or labelling near it, and not all partners need be listed. For some assays here: Where a sequence is shown, tags or fusion partners need not be part of it.

Chains of the proteins cited; added tags and fusions are not shown.
UniProt O09106: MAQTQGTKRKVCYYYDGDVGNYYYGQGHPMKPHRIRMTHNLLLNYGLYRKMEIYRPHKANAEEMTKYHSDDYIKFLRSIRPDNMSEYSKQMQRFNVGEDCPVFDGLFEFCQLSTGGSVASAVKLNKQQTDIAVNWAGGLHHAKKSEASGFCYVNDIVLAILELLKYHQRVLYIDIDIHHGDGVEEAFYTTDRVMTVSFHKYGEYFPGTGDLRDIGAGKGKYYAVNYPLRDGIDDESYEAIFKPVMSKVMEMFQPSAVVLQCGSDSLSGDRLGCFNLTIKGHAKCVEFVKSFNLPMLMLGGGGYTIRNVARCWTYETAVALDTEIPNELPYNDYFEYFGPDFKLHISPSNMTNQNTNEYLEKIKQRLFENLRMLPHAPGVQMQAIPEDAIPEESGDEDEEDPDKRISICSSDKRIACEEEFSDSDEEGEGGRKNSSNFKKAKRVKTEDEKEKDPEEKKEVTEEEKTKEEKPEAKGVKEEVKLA

T1: V5-tagged version of the endogenous GSE1 protein (human) (UniProt Q14687)
T1 sequence: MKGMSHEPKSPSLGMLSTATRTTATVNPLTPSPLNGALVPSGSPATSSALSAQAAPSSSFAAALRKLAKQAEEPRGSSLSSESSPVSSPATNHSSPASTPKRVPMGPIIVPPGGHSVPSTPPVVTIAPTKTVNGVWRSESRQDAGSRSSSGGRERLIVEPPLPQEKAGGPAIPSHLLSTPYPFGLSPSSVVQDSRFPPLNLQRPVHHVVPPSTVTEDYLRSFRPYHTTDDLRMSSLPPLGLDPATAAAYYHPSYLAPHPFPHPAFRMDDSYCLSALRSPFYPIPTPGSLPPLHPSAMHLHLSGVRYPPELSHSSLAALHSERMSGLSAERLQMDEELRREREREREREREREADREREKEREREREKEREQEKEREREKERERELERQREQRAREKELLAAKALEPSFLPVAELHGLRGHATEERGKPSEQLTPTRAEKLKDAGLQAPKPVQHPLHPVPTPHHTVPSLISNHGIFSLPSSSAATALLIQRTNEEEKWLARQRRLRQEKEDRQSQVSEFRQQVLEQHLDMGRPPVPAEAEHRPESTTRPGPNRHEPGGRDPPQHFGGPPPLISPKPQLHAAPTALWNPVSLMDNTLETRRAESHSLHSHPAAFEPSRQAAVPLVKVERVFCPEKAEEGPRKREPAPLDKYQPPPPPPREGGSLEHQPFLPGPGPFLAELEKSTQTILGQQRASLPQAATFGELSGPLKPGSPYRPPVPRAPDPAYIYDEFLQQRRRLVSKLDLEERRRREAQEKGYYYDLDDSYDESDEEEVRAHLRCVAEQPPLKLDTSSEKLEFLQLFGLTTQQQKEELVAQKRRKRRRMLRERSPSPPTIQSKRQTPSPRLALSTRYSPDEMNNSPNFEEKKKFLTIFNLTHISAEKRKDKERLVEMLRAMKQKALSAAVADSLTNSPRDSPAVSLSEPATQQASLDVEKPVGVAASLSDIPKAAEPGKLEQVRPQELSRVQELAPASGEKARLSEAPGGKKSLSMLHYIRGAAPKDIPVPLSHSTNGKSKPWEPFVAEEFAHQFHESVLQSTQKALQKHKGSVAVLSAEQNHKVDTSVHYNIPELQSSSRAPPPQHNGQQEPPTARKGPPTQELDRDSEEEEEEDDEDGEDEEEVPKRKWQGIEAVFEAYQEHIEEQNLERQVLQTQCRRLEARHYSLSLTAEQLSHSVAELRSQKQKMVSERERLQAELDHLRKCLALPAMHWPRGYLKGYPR


Experiments:
[1] = target: FLAG-tagged HDAC1 in mouse embryonic fibroblasts (UniProt O09106); assay: affinity purification with mass spectrometry; HDAC1-FLAG purified from mouse embryonic fibroblast (MEF) whole cell extract on M2-FLAG beads; control wildtype cells; label-free quantification
[2] = target: T1, V5-tagged version of the endogenous GSE1 protein (human); assay: affinity purification with mass spectrometry; GSE1-V5 captured on V5-beads from HAP1 whole cell extract (Hunt buffer), untreated and 6 h etoposide treated cells; control HAP1 WT cells; on-bead digest, label-free quantification

Binder | binding [1] | binding [2]
GSE1 (mouse) (protein, UniProt Q3U3C9 1-1213) MKGMSHEPKSPSIGMLSTATRTTATVNPLTPSPLNGALVPTGSPATSSTLSAQAAPSSSFAAALRKLAKQAEEPRGSSLSSESSPVSSPATNHSSPASTPKRVPMGPIIVPPGGHSVPSTPPVVTIAPTKTVNGVWRSESRQDSGSRGSSSGRERLLVEPPLAQEKAAGPAIPSHLLSTPYPFGLSPGSVVQDSRFQPLNLQRPVHHVVPPSTVTEDYLRSFRPYHTAEDLRMSSLPPLGLDPATAAAYYHPSYLAPHPFPHPAFRMDDSYCLSALRSPFYPIPTPGSLPPLHPSAMHLHLSGVRYPPELSHSSLAALHSERMSSLSAERLQMDEELRREREREREREREADREREKEREREQREKEREKELEREREKERERELERQREQRAREKELLAAKALEPTTFLPVAELHGLRGHSTEERPKPSEQLTPTRAEKLKDVGLQAPKPVQHPLHPVPAPHHTVPSLISSHGIFSLPGSSATTALLIQRTNEEEKWLARQRRLRQEKEDRQSQVSEFRQQVLEQHLDLGRPLVPTEAEHRPESTRPGTNRHEQGSREPPQHFGGPPPLISPKPQQHTVPTALWNPVSLMDNALETRRAESHSLHSHPTAFEPSRQAAVPLVKVERVYCSEKAEEPRKREATPLDKYQPPPPPPPPREAGSLEPQTFPHGPGPFLTELEKSTQTILGQQRPSLSQATSFGELSGPLKPGSPYCHPTARGPDPAYIYDEFLQQRRKLVSKLDLEERRRREAQEKGYYYDLDDSYDESDEEEVRAHLRCVAEQPPLKLDTSSEKLEFLQLFGLTTQQQKEELVAQKRRKRRRMLRERSPSPPAVQCKRQTPSPRLALSTRYSPDEMNNSPNFEEKRKFLTFFNLTHISAEKRKDKERLVEMLRAMKQRALSAADSVTNSSRDSPPVSLSEPATQPAPLETDQPVGVPASLSDVPKTTETGRLEQLRPQELLRVQEPAPPSGEKARLSEAPGGKKSLSMLHYLRGAAPKDIPVPLSHSINGKSKPWEPFVAEEFAHQFHESVLQSTQKALQKHKGNSALLSAEQSHKVDTAIHYNIPELQSSSRVPLPQHNGQQEPPMGRKGPPMQEADQDSEEDSEEDSEEEAEEAPRRQWQGIEAIFEAYQEHIEEQNLERQVLQTQCRRLEAQNYSLSLTAEQLSHSMAELRSQKQKMVSERERLQAELDHLRKCLALPTMHWPRGYFKGYPR | binds | 
SLU7 (protein, UniProt O95391 1-586) MSATVVDAVNAAPLSGSKEMSLEEPKKMTREDWRKKKELEEQRKLGNAPAEVDEEGKDINPHIPQYISSVPWYIDPSKRPTLKHQRPQPEKQKQFSSSGEWYKRGVKENSIITKYRKGACENCGAMTHKKKDCFERPRRVGAKFTGTNIAPDEHVQPQLMFDYDGKRDRWNGYNPEEHMKIVEEYAKVDLAKRTLKAQKLQEELASGKLVEQANSPKHQWGEEEPNSQMEKDHNSEDEDEDKYADDIDMPGQNFDSKRRITVRNLRIREDIAKYLRNLDPNSAYYDPKTRAMRENPYANAGKNPDEVSYAGDNFVRYTGDTISMAQTQLFAWEAYDKGSEVHLQADPTKLELLYKSFKVKKEDFKEQQKESILEKYGGQEHLDAPPAELLLAQTEDYVEYSRHGTVIKGQERAVACSKYEEDVKIHNHTHIWGSYWKEGRWGYKCCHSFFKYSYCTGEAGKEIVNSEECIINEITGEESVKKPQTLMELHQEKLKEEKKKKKKKKKKHRKSSSDSDDEEKKHEKLKKALNAEEARLLHVKETMQIDERKRPYNSMYETREPTEEEMEAYRMKRQRPDDPMASFLGQ |  | binds
